Laboratory results: patent publication US20190262383
For some assays here: The comparison behind a weaker result is the experiment's own reference, which may not be listed here. For some assays here: Results from cells or extracts need not show a direct contact.

The chains behind the UniProt entries cited, without tags or fusion partners. Residues count along the entry.
UniProt P32248, 25-378: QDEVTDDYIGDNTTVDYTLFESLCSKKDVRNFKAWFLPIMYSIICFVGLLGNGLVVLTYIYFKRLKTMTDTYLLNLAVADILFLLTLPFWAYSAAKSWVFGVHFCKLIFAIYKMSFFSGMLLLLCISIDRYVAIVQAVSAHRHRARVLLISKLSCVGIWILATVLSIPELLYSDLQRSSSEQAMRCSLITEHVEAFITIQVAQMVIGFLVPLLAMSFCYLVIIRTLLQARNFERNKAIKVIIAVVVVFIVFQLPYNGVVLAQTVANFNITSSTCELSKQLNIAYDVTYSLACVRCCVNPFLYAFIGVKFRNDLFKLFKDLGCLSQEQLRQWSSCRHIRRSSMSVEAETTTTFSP

How the values were obtained:
[1] = molecular target: T1, CCR7 (C-C chemokine receptor type 7) (Homo sapiens?) (UniProt P32248); assay: flow cytometry; conditions: HeLa-CCR7 ++; H9 ++; human memory CD4+ T cells + (10-25%); protein on the cell surface
[2] = molecular target: T1, CCR7 (C-C chemokine receptor type 7); assay: EMSA; conditions: gel shift with recombinant CCR7, purified recombinant protein

## GGGAGGACGAUGCGGUCCAUCGUCUCUUAUCGUCUCUUGUCGCGCCAGACGACUCGCCCGA [C-6]
[1]
  binding result: binds
[2]
  binding result: binds more weakly
